The supplement of paper PMC8728848
The other results are listed elsewhere or left out.

How the values were obtained:
Experiment in all cases: glycan array binding signal (z-score within array); higher = stronger binding
Settings in all cases: glycan notation: IUPAC condensed, linker removed
[1] = molecular target: Fuc(a1-2)Gal(b1-4)GlcNAc(b1-3)Gal(b1-4)GlcNAc(b1-2)Man(a1-3)[Fuc(a1-2)Gal(b1-4)GlcNAc(b1-3)Gal(b1-4)GlcNAc(b1-2)Man(a1-6)]Man(b1-4)GlcNAc(b1-4)GlcNAc
Method in brief: (§1)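 Columns mapping to the same glycan were averaged after glycan names were converted to IUPAC-condensed notation. The data come from 3228 arrays in the Consortium for Functional Glycomics database, limited to those with an available protein sequence. Binding is reported as a within-array Z-score averaged across arrays of one protein sequence and across linkers.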

[2] = molecular target: Fuc(a1-2)Gal(b1-4)GlcNAc(b1-3)Gal(b1-4)GlcNAc(b1-3)Gal(b1-4)GlcNAc
Method in brief: as §1

[3] = molecular target: Fuc(a1-2)Gal(b1-4)GlcNAc(b1-3)GalNAc
Method in brief: as §1

[4] = molecular target: Fuc(a1-2)Gal(b1-4)GlcNAc(b1-3)[Fuc(a1-2)Gal(b1-4)GlcNAc(b1-6)]GalNAc
Method in brief: as §1

[5] = molecular target: Fuc(a1-2)Gal(b1-4)GlcNAc(b1-3)[Fuc(a1-3)[Gal(b1-4)]GlcNAc(b1-6)]Gal(b1-4)Glc
Method in brief: as §1

[6] = molecular target: Fuc(a1-2)Gal(b1-4)GlcNAc(b1-6)GalNAc
Method in brief: as §1

[7] = molecular target: Fuc(a1-2)Gal(b1-4)GlcNAc6S
Method in brief: as §1

[8] = molecular target: Fuc(a1-2)Gal(b1-4)[Fuc(a1-3)]GlcNAc
Method in brief: as §1

[9] = molecular target: Fuc(a1-2)Gal(b1-4)[Fuc(a1-3)]GlcNAc(b1-2)Man(a1-3)[Fuc(a1-2)Gal(b1-4)[Fuc(a1-3)]GlcNAc(b1-2)Man(a1-6)]Man(b1-4)GlcNAc(b1-4)[Fuc(a1-6)]GlcNAc
Method in brief: as §1

[10] = molecular target: Fuc(a1-2)Gal(b1-4)[Fuc(a1-3)]GlcNAc(b1-2)[Fuc(a1-2)Gal(b1-4)[Fuc(a1-3)]GlcNAc(b1-4)]Man(a1-3)[Fuc(a1-2)Gal(b1-4)[Fuc(a1-3)]GlcNAc(b1-2)Man(a1-6)]Man(b1-4)GlcNAc(b1-4)GlcNAc
Method in brief: as §1

[11] = molecular target: Fuc(a1-2)Gal(b1-4)[Fuc(a1-3)]GlcNAc(b1-3)Gal(b1-4)[Fuc(a1-3)]GlcNAc
Method in brief: as §1

[12] = molecular target: Fuc(a1-2)Gal(b1-4)[Fuc(a1-3)]GlcNAc(b1-3)Gal(b1-4)[Fuc(a1-3)]GlcNAc(b1-3)Gal(b1-4)[Fuc(a1-3)]GlcNAc
Method in brief: as §1

[13] = molecular target: Fuc(a1-2)Gal(b1-4)[Fuc(a1-3)]GlcNAc(b1-3)GalNAc
Method in brief: as §1

[14] = molecular target: Fuc(a1-2)Gal(b1-4)[Fuc(a1-3)]GlcNAc(b1-3)[Neu5Ac(a2-6)Gal(b1-4)GlcNAc(b1-6)]Gal(b1-4)Glc
Method in brief: as §1

[15] = molecular target: Fuc(a1-2)Gal3S(b1-4)GlcNAc
Method in brief: as §1

[16] = molecular target: Fuc(a1-2)Gal6S(b1-3)GlcNAc
Method in brief: as §1

[17] = molecular target: Fuc(a1-2)Gal6S(b1-3)GlcNAc6S
Method in brief: as §1

Fuc(a1-2)Gal6S(b1-4)Glc = molecular target: Fuc(a1-2)Gal6S(b1-4)Glc
Method in brief: as §1

[18] = molecular target: Fuc(a1-2)Gal6S(b1-4)Glc6S
Method in brief: as §1

Fuc(a1-2)[Gal(a1-3)]Gal = molecular target: Fuc(a1-2)[Gal(a1-3)]Gal
Method in brief: as §1

[19] = molecular target: Fuc(a1-2)[Gal(a1-3)]Gal(b1-3)GalNAc
Method in brief: as §1

[20] = molecular target: Fuc(a1-2)[Gal(a1-3)]Gal(b1-3)GalNAc(b1-3)Gal(a1-4)Gal(b1-4)Glc
Method in brief: as §1

[21] = molecular target: Fuc(a1-2)[Gal(a1-3)]Gal(b1-3)GlcNAc
Method in brief: as §1

[22] = molecular target: Fuc(a1-2)[Gal(a1-3)]Gal(b1-3)GlcNAc(b1-2)Man(a1-3)[Fuc(a1-2)[Gal(a1-3)]Gal(b1-3)GlcNAc(b1-2)Man(a1-6)]Man(b1-4)GlcNAc(b1-4)GlcNAc
Method in brief: as §1

[23] = molecular target: Fuc(a1-2)[Gal(a1-3)]Gal(b1-3)GlcNAc(b1-2)Man(a1-3)[Fuc(a1-2)[Gal(a1-3)]Gal(b1-3)GlcNAc(b1-2)Man(a1-6)]Man(b1-4)GlcNAc(b1-4)[Fuc(a1-6)]GlcNAc
Method in brief: as §1

[24] = molecular target: Fuc(a1-2)[Gal(a1-3)]Gal(b1-3)GlcNAc(b1-3)GalNAc
Method in brief: as §1

[25] = molecular target: Fuc(a1-2)[Gal(a1-3)]Gal(b1-3)GlcNAc(b1-6)GalNAc
Method in brief: as §1

[26] = molecular target: Fuc(a1-2)[Gal(a1-3)]Gal(b1-4)Glc
Method in brief: as §1

[27] = molecular target: Fuc(a1-2)[Gal(a1-3)]Gal(b1-4)GlcNAc
Method in brief: as §1

[28] = molecular target: Fuc(a1-2)[Gal(a1-3)]Gal(b1-4)GlcNAc(b1-2)Man
Method in brief: as §1

[29] = molecular target: Fuc(a1-2)[Gal(a1-3)]Gal(b1-4)GlcNAc(b1-2)Man(a1-3)[Fuc(a1-2)[Gal(a1-3)]Gal(b1-4)GlcNAc(b1-2)Man(a1-6)]Man(b1-4)GlcNAc(b1-4)GlcNAc
Method in brief: as §1

[30] = molecular target: Fuc(a1-2)[Gal(a1-3)]Gal(b1-4)GlcNAc(b1-2)Man(a1-3)[Fuc(a1-2)[Gal(a1-3)]Gal(b1-4)GlcNAc(b1-2)Man(a1-6)]Man(b1-4)GlcNAc(b1-4)[Fuc(a1-6)]GlcNAc
Method in brief: as §1

[31] = molecular target: Fuc(a1-2)[Gal(a1-3)]Gal(b1-4)GlcNAc(b1-3)GalNAc
Method in brief: as §1

[32] = molecular target: Fuc(a1-2)[Gal(a1-3)]Gal(b1-4)GlcNAc(b1-3)[Fuc(a1-2)[Gal(a1-3)]Gal(b1-4)GlcNAc(b1-6)]GalNAc
Method in brief: as §1

[33] = molecular target: Fuc(a1-2)[Gal(a1-3)]Gal(b1-4)GlcNAc(b1-6)GalNAc
Method in brief: as §1

[34] = molecular target: Fuc(a1-2)[Gal(a1-3)]Gal(b1-4)[Fuc(a1-3)]Glc
Method in brief: as §1

[35] = molecular target: Fuc(a1-2)[Gal(a1-3)]Gal(b1-4)[Fuc(a1-3)]GlcNAc
Method in brief: as §1

B1: SP15308C-bot-338-23-338 (Bacteroides ovatus) (protein)
chain: DEWTDEQFKQLISFKTQPGGWGVTDVHVRYANSAKYTYNLPVLVSGSTDNTDDRLVSFSLRDDTLDILNFEKFGNRPELYFRELPQKYYSFPKELTIPAGQSHALLPIEFSLDGLDDSQKWALPLKVCEDANGTYAVNPRKYYRTAVLRPILFNEFSGRFSGSSLLGTMAGESDIKFSSTEIKLNVVTDSIVFFYAGQRTEDYEDRINYKVFLQFTGDKVDSKKDLYKMKIWAENEKLKFNSYSTPTYKVSSEMDATKTYLKHTYIVISDIDFDFVDYTSVPNYEIEYNMKGGLSVSRDLDTRKPDEDQGSDSKWW
How did the “glycan array binding signal (z-score)” value [1] turn out when B1 was run?
The value was 0.228.

And the “glycan array binding signal (z-score)” value [2]?
The value was -0.544.

What about the “glycan array binding signal (z-score)” value [3] of the same binder?
Its value is 1.1.

And the “glycan array binding signal (z-score)” value [4]?
Its value is -0.151.

What about the “glycan array binding signal (z-score)” value [5] of the same binder?
The value was -0.2.

And the “glycan array binding signal (z-score)” value [6]?
The value was 0.278.

What about the “glycan array binding signal (z-score)” value [7] of the same binder?
The value was 0.208.

And the “glycan array binding signal (z-score)” value [8]?
Its value is -0.86.

And the “glycan array binding signal (z-score)” value [9]?
Its value is -0.126.

What about the “glycan array binding signal (z-score)” value [10] of the same binder?
The value was 0.437.

What about the “glycan array binding signal (z-score)” value [11] of the same binder?
The value was -0.145.

What about the “glycan array binding signal (z-score)” value [12] of the same binder?
The value was 0.281.

And the “glycan array binding signal (z-score)” value [13]?
Its value is 1.08.

What about the “glycan array binding signal (z-score)” value [14] of the same binder?
The value was -0.254.

What about the “glycan array binding signal (z-score)” value [15] of the same binder?
Its value is -0.996.

And the “glycan array binding signal (z-score)” value [16]?
Its value is 0.444.

What about the “glycan array binding signal (z-score)” value [17] of the same binder?
Its value is 0.349.

What about the “glycan array binding signal (z-score)” value (Fuc(a1-2)Gal6S(b1-4)Glc) of the same binder?
The value was 0.374.

What about the “glycan array binding signal (z-score)” value [18] of the same binder?
The value was 0.233.

And the “glycan array binding signal (z-score)” value (Fuc(a1-2)[Gal(a1-3)]Gal)?
The value was -0.151.

And the “glycan array binding signal (z-score)” value [19]?
Its value is -0.434.

What about the “glycan array binding signal (z-score)” value [20] of the same binder?
Its value is -0.115.

And the “glycan array binding signal (z-score)” value [21]?
Its value is 1.19.

And the “glycan array binding signal (z-score)” value [22]?
Its value is 0.042.

And the “glycan array binding signal (z-score)” value [23]?
The value was 0.018.

What about the “glycan array binding signal (z-score)” value [24] of the same binder?
The value was -0.608.

What about the “glycan array binding signal (z-score)” value [25] of the same binder?
Its value is 0.174.

What about the “glycan array binding signal (z-score)” value [26] of the same binder?
The value was -0.065.

And the “glycan array binding signal (z-score)” value [27]?
The value was -0.155.

What about the “glycan array binding signal (z-score)” value [28] of the same binder?
The value was -0.124.

What about the “glycan array binding signal (z-score)” value [29] of the same binder?
The value was 1.38.

What about the “glycan array binding signal (z-score)” value [30] of the same binder?
Its value is -0.606.

And the “glycan array binding signal (z-score)” value [31]?
The value was -0.468.

And the “glycan array binding signal (z-score)” value [32]?
Its value is -0.024.

And the “glycan array binding signal (z-score)” value [33]?
The value was -0.925.

And the “glycan array binding signal (z-score)” value [34]?
Its value is -0.609.

And the “glycan array binding signal (z-score)” value [35]?
The value was -0.209.
